Data on 9 molecules can be found in publication PMC4778861, “Type One Protein Phosphatase 1 and Its Regulatory Protein Inhibitor 2 Negatively Regulate ABA Signaling” (PLoS Genetics, 2016).

By UniProt entry, the sequences of proteins in these tests, tags left out.
UniProt P30366: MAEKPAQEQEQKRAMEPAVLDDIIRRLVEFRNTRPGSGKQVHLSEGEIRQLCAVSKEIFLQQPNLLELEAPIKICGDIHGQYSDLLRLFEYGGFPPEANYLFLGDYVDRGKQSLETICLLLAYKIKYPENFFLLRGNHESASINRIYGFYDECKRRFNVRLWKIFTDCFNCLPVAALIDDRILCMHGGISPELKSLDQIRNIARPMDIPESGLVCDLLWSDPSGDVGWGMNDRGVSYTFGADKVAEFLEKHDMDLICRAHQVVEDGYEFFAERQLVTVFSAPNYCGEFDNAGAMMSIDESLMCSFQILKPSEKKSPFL
UniProt P49597: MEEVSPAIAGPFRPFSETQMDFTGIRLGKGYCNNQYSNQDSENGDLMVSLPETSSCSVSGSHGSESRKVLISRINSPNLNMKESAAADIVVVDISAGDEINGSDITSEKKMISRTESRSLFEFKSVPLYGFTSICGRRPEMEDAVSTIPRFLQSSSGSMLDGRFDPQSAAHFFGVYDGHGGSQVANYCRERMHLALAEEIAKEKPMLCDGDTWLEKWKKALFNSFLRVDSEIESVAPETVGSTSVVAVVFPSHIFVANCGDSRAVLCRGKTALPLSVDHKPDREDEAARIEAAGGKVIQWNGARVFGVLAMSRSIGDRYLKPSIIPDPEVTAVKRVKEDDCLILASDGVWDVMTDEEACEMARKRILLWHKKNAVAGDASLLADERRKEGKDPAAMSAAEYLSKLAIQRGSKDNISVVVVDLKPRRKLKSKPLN
UniProt P48482: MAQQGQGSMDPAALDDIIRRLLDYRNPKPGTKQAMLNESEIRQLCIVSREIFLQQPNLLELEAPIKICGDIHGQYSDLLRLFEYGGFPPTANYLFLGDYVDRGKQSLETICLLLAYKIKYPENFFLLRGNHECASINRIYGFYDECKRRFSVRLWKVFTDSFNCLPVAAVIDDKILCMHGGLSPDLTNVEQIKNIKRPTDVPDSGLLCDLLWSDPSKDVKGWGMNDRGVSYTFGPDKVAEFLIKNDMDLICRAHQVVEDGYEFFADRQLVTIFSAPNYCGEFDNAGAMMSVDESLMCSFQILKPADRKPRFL

The target in assay [1] is T1, PYL11-nLUC (Arabidopsis thaliana) (UniProt Q9FJ50).
T1 sequence: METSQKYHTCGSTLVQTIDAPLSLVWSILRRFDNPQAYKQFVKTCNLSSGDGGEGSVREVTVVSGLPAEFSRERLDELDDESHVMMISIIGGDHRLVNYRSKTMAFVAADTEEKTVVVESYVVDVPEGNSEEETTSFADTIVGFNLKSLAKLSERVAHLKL
Description: split reporter; split-luciferase complementation; nLUC and cLUC fusions co-expressed in N. benthamiana leaves by Agrobacterium infiltration, LUC activity imaged after 2 days.

The target in assay [2] is T2, SnRK2.6-nLUC (Arabidopsis thaliana) (UniProt Q940H6).
T2 sequence: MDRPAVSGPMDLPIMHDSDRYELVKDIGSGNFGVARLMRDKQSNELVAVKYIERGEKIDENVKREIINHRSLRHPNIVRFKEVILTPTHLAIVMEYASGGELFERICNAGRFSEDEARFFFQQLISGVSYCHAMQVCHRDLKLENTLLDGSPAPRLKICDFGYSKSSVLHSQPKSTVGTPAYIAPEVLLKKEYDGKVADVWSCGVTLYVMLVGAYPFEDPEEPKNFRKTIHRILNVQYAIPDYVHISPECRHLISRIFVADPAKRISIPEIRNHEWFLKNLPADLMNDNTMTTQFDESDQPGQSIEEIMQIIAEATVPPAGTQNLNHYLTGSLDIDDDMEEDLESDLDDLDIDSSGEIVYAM
Described as above.

The target in assay [3] is T3, BD-SnRK2.6 (Arabidopsis thaliana) (UniProt Q940H6).
T3 sequence: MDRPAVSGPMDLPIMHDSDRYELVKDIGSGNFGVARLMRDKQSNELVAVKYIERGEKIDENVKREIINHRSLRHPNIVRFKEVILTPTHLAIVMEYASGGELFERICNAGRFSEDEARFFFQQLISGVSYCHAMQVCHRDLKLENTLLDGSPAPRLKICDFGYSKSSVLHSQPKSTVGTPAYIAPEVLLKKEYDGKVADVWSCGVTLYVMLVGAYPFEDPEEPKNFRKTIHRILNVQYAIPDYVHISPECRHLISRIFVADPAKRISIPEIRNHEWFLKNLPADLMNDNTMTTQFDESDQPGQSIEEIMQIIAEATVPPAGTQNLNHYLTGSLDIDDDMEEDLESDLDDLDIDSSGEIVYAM
Kind of assay: two-hybrid; AD fusions (pGADT7) with BD fusions in S. cerevisiae AH109; growth on SD medium lacking Leu, Trp, His in the absence or presence of 10 uM ABA (the text does not tell the two apart); 1 mM 3-AT to reduce self-activation of BD-SnRK2s; 30°C.

Assay [4] deals with T4, BD-SnRK2.2 (Arabidopsis thaliana) (UniProt Q39192).
T4 sequence: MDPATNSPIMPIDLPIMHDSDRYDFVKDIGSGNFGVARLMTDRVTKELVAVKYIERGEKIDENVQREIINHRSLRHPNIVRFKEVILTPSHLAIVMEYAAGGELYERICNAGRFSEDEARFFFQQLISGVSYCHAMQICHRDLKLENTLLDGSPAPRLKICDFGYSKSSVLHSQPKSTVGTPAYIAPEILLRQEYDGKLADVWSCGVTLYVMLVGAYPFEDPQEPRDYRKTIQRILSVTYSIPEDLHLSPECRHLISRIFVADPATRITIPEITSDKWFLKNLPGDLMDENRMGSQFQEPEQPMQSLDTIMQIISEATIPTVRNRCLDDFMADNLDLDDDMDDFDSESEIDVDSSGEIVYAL
Described as above.

For assay [5], the target named is T5, SnRK2.6 with MYC tag (Arabidopsis thaliana) (UniProt Q940H6).
T5 sequence: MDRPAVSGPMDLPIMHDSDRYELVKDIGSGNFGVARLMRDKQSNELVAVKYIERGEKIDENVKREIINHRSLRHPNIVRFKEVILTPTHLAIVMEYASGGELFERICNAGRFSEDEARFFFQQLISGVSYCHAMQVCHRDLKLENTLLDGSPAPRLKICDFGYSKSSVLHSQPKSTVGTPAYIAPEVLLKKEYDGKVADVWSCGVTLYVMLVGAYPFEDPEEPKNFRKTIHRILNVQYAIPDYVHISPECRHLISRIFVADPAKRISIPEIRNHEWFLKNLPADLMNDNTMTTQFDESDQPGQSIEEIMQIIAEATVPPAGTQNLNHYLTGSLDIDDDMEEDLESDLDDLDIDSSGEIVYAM
Description: co-IP; co-transformed Arabidopsis protoplasts; lysate (50 mM Tris-HCl pH 7.4, 150 mM NaCl, 1 mM EDTA, 0.1% Triton X-100) with anti-HA-agarose or anti-MYC-agarose at 4°C; Western blot. For orientation: In western blotting, separated proteins are transferred to a membrane and probed.

The target of assay [6] is T6, SnRK2.3-nLUC (Arabidopsis thaliana) (UniProt Q39193).
T6 sequence: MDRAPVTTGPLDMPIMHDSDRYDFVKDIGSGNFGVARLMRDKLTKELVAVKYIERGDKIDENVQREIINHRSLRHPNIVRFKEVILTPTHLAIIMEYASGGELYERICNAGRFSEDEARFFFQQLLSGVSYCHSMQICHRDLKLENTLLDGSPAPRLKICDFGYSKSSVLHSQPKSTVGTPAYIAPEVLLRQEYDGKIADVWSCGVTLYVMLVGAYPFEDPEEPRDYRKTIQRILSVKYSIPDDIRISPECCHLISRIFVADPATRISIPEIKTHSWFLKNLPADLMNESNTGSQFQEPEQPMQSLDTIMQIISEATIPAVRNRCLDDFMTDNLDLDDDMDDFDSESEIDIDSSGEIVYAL
Kind of assay: split reporter; split-luciferase complementation; nLUC and cLUC fusions co-expressed in N. benthamiana leaves by Agrobacterium infiltration, LUC activity imaged after 2 days.

The target of assay [7] is T7, SnRK2.2-nLUC (Arabidopsis thaliana) (UniProt Q39192).
T7 sequence: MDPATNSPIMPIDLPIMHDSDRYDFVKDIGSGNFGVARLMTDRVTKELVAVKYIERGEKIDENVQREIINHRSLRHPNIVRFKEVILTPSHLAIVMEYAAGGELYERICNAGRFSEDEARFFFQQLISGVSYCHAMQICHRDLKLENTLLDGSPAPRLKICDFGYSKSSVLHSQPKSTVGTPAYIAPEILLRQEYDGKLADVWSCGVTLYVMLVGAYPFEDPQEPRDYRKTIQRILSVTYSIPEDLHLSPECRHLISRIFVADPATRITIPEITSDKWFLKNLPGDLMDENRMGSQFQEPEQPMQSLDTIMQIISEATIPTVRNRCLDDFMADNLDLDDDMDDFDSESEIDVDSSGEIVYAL
The description is as above.

Assay [8] addresses T1, PYL11-nLUC (Arabidopsis thaliana). Description: split reporter; split-luciferase complementation in N. benthamiana leaves with FLAG-AtI-2 co-expressed as a third protein.
Assay [9] addresses T2, SnRK2.6-nLUC (Arabidopsis thaliana). Described as above.
Assay [10] has as its target T8, BD-SnRK2.8 (Arabidopsis thaliana) (UniProt Q9M9E9).
T8 sequence: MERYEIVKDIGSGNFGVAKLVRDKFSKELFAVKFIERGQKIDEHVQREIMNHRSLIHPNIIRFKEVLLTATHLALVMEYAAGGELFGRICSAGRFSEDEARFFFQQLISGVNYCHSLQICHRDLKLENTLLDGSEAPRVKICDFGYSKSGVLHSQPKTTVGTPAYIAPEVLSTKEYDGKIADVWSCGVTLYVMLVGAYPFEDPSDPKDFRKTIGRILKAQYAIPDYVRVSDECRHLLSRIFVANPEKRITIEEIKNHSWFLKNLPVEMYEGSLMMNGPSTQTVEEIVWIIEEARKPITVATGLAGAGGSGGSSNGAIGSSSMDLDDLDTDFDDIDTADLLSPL
Description: two-hybrid; AD fusions (pGADT7) with BD fusions in S. cerevisiae AH109; growth on SD medium lacking Leu, Trp, His in the absence or presence of 10 uM ABA (the text does not tell the two apart); 1 mM 3-AT to reduce self-activation of BD-SnRK2s; 30°C.

The target in assay [11] is T4, BD-SnRK2.2 (Arabidopsis thaliana). Described as above. This is another data set of the same source.
The target in assay [12] is TOPP1 (two-hybrid partner of AD-AtI-2) (Arabidopsis thaliana) (UniProt P30366). The assay is described as above.
Assay [13] concerns the target T9, BD-SnRK2.3 (Arabidopsis thaliana) (UniProt Q39193).
T9 sequence: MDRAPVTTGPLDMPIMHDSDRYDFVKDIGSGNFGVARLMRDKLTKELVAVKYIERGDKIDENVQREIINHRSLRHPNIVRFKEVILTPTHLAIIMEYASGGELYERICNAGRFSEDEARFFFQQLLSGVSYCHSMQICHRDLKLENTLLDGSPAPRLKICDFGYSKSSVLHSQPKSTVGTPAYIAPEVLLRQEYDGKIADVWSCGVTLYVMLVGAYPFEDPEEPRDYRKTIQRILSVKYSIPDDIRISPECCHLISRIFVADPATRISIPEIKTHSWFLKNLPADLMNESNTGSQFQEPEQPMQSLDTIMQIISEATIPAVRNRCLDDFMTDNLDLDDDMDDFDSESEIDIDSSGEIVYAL
The description is as above.

Assay [14] deals with T3, BD-SnRK2.6 (Arabidopsis thaliana). Described as above. This is another data set of the same source.
Assay [15] has as its target T10, BD-PYL11 (Arabidopsis thaliana) (UniProt Q9FJ50).
T10 sequence: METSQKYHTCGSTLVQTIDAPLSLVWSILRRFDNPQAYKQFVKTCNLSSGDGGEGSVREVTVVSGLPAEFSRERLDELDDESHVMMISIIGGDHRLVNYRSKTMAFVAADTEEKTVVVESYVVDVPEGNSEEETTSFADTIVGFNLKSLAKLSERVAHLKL
Description: two-hybrid; AD fusions with BD-PYLs in S. cerevisiae AH109; growth on SD medium lacking Leu, Trp, His in the presence of 10 uM ABA.

For assay [16], the target named is cLUC-TOPP1 (Arabidopsis thaliana) (UniProt P30366). Description: split reporter; split-luciferase complementation; nLUC and cLUC fusions co-expressed in N. benthamiana leaves by Agrobacterium infiltration, LUC activity imaged after 2 days.

Where two headings read alike, the source gives them in different places. No constants are given. Whether binding was seen depends on the method and setting. For part of these data: In cells and extracts the contact can be indirect. Some entries that bind do so weakly or less than the wild type. Tags and fused reporters may be left off the sequences shown.

Regarding “ABI1-cLUC (from UniProt P49597 1-434) (enzyme)”, the binding entry in assay [1] and in assay [2] was “binds” in each case.
“AD-ABI1 (from UniProt P49597 1-434) (enzyme)”: the binding entry in [3] is on record as “binds”.
On to “AD-TOPP2 (from UniProt P48482 1-312) (enzyme)”, for which the binding entry in assay [4] and in [3] was “binds” throughout.
Regarding “TOPP1 (expressed in protoplasts for Co-IP) (from UniProt P30366 1-318) (enzyme)”, in assay [5], the binding result is on record as “binds”.
Regarding “cLUC-TOPP1 (from UniProt P30366 1-318) (enzyme)”, the binding result is “binds” in assay [1]; “binds” in assay [6]; “binds weakly” in assay [2]; “binds” in assay [7]; “binds” in assay [8]; “binds” in [9].

B1: AD-AtI-2 (protein, UniProt Q9LTK0 1-191)
chain: MTEPKRGRVQWDEANIVEIESNKPVRQKITEPKTPYHPMMDDDGSLSPRGRAFDECVDDMQRAEELRNVLNDAAASSSRNSSQGSGGGGWSSSDEEEEEADPMDQDEEGSGSGKNERFNAHRKAHYDEFRKVKELRSSGSFYEEEEEEDDGAKGSKSETTTNSRHTKGGNKELDATKTVSGTSSSSSPELI
For the molecule B1, the binding result in [10], in assay [11], in assay [12], in [13], in assay [14] and in assay [15] was “binds” in each case.

B2: AtI-2 (expressed in protoplasts for Co-IP) (protein, UniProt Q9LTK0 1-191)
chain: MTEPKRGRVQWDEANIVEIESNKPVRQKITEPKTPYHPMMDDDGSLSPRGRAFDECVDDMQRAEELRNVLNDAAASSSRNSSQGSGGGGWSSSDEEEEEADPMDQDEEGSGSGKNERFNAHRKAHYDEFRKVKELRSSGSFYEEEEEEDDGAKGSKSETTTNSRHTKGGNKELDATKTVSGTSSSSSPELI
Regarding B2, the binding result in assay [5] is on record as “binds”.

B3: cLUC-AtI-2 (protein, UniProt Q9LTK0 1-191)
chain: MTEPKRGRVQWDEANIVEIESNKPVRQKITEPKTPYHPMMDDDGSLSPRGRAFDECVDDMQRAEELRNVLNDAAASSSRNSSQGSGGGGWSSSDEEEEEADPMDQDEEGSGSGKNERFNAHRKAHYDEFRKVKELRSSGSFYEEEEEEDDGAKGSKSETTTNSRHTKGGNKELDATKTVSGTSSSSSPELI
In the case of B3, the binding entry in [1], in assay [6], in assay [2] and in assay [7] was “binds” throughout.

B4: AtI-2-nLUC (protein, UniProt Q9LTK0 1-191)
chain: MTEPKRGRVQWDEANIVEIESNKPVRQKITEPKTPYHPMMDDDGSLSPRGRAFDECVDDMQRAEELRNVLNDAAASSSRNSSQGSGGGGWSSSDEEEEEADPMDQDEEGSGSGKNERFNAHRKAHYDEFRKVKELRSSGSFYEEEEEEDDGAKGSKSETTTNSRHTKGGNKELDATKTVSGTSSSSSPELI
In the case of B4, in [16], the binding entry was “binds”.
